Experimental findings from paper PMC6989212 are described below.

Amino acid sequences for entries named in this document (tags omitted).
UniProt P32568: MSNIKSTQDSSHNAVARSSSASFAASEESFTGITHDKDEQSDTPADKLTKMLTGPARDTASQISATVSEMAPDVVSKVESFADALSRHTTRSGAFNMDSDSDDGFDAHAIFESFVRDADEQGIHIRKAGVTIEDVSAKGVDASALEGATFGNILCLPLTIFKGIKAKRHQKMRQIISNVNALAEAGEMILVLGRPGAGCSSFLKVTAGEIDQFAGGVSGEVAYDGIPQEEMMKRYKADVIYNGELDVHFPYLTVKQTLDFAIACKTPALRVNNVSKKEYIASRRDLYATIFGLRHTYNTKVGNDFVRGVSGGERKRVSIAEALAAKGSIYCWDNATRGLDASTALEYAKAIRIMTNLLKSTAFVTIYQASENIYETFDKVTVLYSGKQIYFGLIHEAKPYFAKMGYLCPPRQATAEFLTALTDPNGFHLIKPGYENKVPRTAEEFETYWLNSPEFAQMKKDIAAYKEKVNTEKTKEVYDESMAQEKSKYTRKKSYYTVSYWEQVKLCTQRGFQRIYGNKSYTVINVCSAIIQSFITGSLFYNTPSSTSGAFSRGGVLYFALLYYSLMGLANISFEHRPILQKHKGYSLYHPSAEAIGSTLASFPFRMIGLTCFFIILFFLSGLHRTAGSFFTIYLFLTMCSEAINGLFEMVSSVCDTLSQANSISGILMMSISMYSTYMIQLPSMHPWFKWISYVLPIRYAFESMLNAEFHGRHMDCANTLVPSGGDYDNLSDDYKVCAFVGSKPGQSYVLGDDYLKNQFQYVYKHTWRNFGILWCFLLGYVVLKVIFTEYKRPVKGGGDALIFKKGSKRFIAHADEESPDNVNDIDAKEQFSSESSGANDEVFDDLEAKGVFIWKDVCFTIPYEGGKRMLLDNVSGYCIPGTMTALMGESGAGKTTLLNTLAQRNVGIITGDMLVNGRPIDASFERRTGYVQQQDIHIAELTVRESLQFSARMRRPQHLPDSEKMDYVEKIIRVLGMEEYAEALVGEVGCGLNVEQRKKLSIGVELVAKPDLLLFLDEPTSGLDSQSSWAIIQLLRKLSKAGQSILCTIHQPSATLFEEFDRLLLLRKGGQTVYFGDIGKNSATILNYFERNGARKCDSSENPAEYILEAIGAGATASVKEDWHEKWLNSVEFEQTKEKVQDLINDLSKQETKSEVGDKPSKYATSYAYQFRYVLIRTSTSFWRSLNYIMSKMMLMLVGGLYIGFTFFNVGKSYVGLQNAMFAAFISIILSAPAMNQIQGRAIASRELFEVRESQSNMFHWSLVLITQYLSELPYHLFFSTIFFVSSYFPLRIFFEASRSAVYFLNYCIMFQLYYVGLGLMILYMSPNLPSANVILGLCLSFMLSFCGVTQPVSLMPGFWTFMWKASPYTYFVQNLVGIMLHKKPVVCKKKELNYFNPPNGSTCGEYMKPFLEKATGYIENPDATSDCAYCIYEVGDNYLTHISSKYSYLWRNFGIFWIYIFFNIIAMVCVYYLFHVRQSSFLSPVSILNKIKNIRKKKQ
UniProt P33302: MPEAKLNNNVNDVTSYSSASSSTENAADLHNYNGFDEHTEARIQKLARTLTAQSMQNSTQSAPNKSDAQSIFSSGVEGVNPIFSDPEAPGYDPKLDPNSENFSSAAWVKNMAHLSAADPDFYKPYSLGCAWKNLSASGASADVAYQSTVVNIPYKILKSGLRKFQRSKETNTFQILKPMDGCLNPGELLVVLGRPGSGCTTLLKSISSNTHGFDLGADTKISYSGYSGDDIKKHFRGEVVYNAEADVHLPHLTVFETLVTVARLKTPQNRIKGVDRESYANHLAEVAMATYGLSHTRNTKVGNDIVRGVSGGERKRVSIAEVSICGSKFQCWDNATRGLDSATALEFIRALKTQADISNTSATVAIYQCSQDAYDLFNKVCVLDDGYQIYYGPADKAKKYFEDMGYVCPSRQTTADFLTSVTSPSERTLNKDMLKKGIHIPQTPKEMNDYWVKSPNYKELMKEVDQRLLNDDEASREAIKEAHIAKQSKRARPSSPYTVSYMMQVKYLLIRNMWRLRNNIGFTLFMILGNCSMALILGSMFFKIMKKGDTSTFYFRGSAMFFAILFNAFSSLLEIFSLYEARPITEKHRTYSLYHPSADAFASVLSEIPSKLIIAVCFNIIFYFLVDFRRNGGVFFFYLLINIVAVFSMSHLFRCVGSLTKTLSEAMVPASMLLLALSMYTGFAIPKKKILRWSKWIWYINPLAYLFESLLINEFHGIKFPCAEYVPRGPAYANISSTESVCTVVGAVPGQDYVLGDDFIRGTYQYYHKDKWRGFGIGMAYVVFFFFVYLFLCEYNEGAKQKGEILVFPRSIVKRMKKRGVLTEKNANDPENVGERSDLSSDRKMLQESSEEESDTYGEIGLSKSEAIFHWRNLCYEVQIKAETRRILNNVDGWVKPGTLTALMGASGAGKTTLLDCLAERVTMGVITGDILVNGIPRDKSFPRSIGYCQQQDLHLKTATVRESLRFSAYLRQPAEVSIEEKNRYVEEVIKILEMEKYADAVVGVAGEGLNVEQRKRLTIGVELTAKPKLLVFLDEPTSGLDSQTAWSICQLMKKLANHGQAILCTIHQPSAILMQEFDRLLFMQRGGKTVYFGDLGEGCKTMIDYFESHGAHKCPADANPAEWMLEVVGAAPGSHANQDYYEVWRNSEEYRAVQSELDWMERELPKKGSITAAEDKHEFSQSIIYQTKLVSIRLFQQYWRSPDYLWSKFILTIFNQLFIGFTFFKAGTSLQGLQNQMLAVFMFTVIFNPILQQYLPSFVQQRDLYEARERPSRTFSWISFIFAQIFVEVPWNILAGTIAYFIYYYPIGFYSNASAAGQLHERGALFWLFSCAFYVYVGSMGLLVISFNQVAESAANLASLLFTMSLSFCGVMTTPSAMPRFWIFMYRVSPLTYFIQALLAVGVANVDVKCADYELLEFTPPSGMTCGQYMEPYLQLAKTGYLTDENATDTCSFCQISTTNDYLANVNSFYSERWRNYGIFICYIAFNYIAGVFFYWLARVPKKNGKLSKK

No constants are given. Whether binding was seen depends on the method and setting. For some assays here: Binding seen in cells or lysates may run through a third protein. Some binding calls cover weakened binding; strength is not graded here. For some assays here: Tags and fused reporters may be left off the sequences shown.

The target of assay [1] is Snq2 (iMYTH bait) (S. cerevisiae) (UniProt P32568). Briefly: two-hybrid; membrane yeast two-hybrid (MYTH, split ubiquitin); genomically Cub-LexA-VP16-tagged baits, PDR5-NubG prey plasmid; growth on solid medium for 5 days on SD-W, SD-WAH, SD-WAH + 0.05% DMSO, SD-WAH + 25 or 50 uM fluconazole + 0.05% DMSO.
Assay [2] has as its target T1, Yor1 (PCA strains, mDHFR fragment fusions) (S. cerevisiae), P53049.
T1 chain: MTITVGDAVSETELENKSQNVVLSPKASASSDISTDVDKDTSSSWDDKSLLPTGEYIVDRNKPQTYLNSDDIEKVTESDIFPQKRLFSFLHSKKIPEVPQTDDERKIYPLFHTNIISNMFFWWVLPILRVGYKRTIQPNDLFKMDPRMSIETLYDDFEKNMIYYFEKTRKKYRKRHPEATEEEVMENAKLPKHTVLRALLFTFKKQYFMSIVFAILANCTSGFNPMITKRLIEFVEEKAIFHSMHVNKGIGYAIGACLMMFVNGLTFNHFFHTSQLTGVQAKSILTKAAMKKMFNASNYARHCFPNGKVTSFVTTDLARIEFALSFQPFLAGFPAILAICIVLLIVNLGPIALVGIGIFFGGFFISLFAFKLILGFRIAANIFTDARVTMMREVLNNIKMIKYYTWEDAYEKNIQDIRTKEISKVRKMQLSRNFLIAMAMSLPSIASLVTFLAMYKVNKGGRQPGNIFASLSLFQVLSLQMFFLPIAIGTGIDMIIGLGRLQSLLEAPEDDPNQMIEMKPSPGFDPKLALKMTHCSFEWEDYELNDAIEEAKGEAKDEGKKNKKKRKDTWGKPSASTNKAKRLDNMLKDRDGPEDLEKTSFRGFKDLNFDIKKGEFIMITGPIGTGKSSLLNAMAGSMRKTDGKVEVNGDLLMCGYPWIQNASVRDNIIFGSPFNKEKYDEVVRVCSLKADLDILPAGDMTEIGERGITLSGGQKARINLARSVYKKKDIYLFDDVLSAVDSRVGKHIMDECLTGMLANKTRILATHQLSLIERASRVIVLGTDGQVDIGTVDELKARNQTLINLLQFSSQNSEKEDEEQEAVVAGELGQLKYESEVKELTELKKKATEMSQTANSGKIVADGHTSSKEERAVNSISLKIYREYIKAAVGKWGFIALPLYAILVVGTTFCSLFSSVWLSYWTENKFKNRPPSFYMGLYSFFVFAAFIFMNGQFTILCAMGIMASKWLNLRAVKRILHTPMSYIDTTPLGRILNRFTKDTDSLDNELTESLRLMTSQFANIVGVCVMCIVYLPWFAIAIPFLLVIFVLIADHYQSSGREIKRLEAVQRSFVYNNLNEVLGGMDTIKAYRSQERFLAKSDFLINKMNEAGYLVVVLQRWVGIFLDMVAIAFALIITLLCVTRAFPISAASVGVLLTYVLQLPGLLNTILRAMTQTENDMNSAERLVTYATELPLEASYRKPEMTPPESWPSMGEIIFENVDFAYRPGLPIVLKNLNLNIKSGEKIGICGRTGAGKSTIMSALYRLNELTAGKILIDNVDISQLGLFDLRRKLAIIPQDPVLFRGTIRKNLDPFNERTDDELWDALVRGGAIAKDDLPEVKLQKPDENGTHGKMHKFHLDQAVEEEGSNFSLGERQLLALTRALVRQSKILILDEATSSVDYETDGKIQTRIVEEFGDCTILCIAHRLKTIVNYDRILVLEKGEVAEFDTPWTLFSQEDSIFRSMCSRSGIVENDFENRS
Briefly: split reporter; DHFR protein-fragment complementation assay (PCA) in diploid yeast; mDHFR-F[1,2] and mDHFR-F[3] fusions; spotted on solid YPD +Hyg +Nat with 2% DMSO, 2% DMSO + 200 ug/mL methotrexate, or 2% DMSO + 200 ug/mL methotrexate + 46.8 uM fluconazole; 72 hours at 30°C. The settings on record: remark: other sources report otherwise.

“Pdr5 (MYTH bait and prey constructs) (from UniProt P33302 1-1511)”: the binding result in assay [1] is recorded as “binds”.

B1: Yor1 (PCA strains, mDHFR fragment fusions), P53049 1-1477 (protein)
chain: MTITVGDAVSETELENKSQNVVLSPKASASSDISTDVDKDTSSSWDDKSLLPTGEYIVDRNKPQTYLNSDDIEKVTESDIFPQKRLFSFLHSKKIPEVPQTDDERKIYPLFHTNIISNMFFWWVLPILRVGYKRTIQPNDLFKMDPRMSIETLYDDFEKNMIYYFEKTRKKYRKRHPEATEEEVMENAKLPKHTVLRALLFTFKKQYFMSIVFAILANCTSGFNPMITKRLIEFVEEKAIFHSMHVNKGIGYAIGACLMMFVNGLTFNHFFHTSQLTGVQAKSILTKAAMKKMFNASNYARHCFPNGKVTSFVTTDLARIEFALSFQPFLAGFPAILAICIVLLIVNLGPIALVGIGIFFGGFFISLFAFKLILGFRIAANIFTDARVTMMREVLNNIKMIKYYTWEDAYEKNIQDIRTKEISKVRKMQLSRNFLIAMAMSLPSIASLVTFLAMYKVNKGGRQPGNIFASLSLFQVLSLQMFFLPIAIGTGIDMIIGLGRLQSLLEAPEDDPNQMIEMKPSPGFDPKLALKMTHCSFEWEDYELNDAIEEAKGEAKDEGKKNKKKRKDTWGKPSASTNKAKRLDNMLKDRDGPEDLEKTSFRGFKDLNFDIKKGEFIMITGPIGTGKSSLLNAMAGSMRKTDGKVEVNGDLLMCGYPWIQNASVRDNIIFGSPFNKEKYDEVVRVCSLKADLDILPAGDMTEIGERGITLSGGQKARINLARSVYKKKDIYLFDDVLSAVDSRVGKHIMDECLTGMLANKTRILATHQLSLIERASRVIVLGTDGQVDIGTVDELKARNQTLINLLQFSSQNSEKEDEEQEAVVAGELGQLKYESEVKELTELKKKATEMSQTANSGKIVADGHTSSKEERAVNSISLKIYREYIKAAVGKWGFIALPLYAILVVGTTFCSLFSSVWLSYWTENKFKNRPPSFYMGLYSFFVFAAFIFMNGQFTILCAMGIMASKWLNLRAVKRILHTPMSYIDTTPLGRILNRFTKDTDSLDNELTESLRLMTSQFANIVGVCVMCIVYLPWFAIAIPFLLVIFVLIADHYQSSGREIKRLEAVQRSFVYNNLNEVLGGMDTIKAYRSQERFLAKSDFLINKMNEAGYLVVVLQRWVGIFLDMVAIAFALIITLLCVTRAFPISAASVGVLLTYVLQLPGLLNTILRAMTQTENDMNSAERLVTYATELPLEASYRKPEMTPPESWPSMGEIIFENVDFAYRPGLPIVLKNLNLNIKSGEKIGICGRTGAGKSTIMSALYRLNELTAGKILIDNVDISQLGLFDLRRKLAIIPQDPVLFRGTIRKNLDPFNERTDDELWDALVRGGAIAKDDLPEVKLQKPDENGTHGKMHKFHLDQAVEEEGSNFSLGERQLLALTRALVRQSKILILDEATSSVDYETDGKIQTRIVEEFGDCTILCIAHRLKTIVNYDRILVLEKGEVAEFDTPWTLFSQEDSIFRSMCSRSGIVENDFENRS
B1: the binding entry in assay [2] is given as “binds”.
